Measured values reported in paper PMC4879346.
These are yes or no findings as the source states them, for the method shown. Binding calls can cover weak binding; strength is not graded here.

Target: MdATG8i (Malus domestica)
Assay: two-hybrid; GAL4 system in yeast strain AH109; MdATG8i in pGBKT7 as bait, MdATG7a or MdATG7b in pGADT7 as prey; growth on SD-Leu-Trp and SD-Leu-Trp-His-Ade+X-alpha-gal plates

| binding | Substance |
| --- | --- |
| binds | MdATG7b (from UniProt A0A068EN18) |
| binds | MdATG7a (from UniProt A0A068EPI7) |
